In article PMC3817697, “Building a pseudo-atomic model of the anaphase-promoting complex” (Acta Crystallographica Section D: Biological Crystallography, 2013) one finds binding data, which are given here for one molecule.

These are yes or no findings as the source states them, for the method shown. Some results given as binding are weak or reduced against the parent protein; the word gives no strength.

This experiment concerns the target T1, Cdc16 of the Cdc16–Cdc26 crystals (UniProt P41889).
T1 sequence: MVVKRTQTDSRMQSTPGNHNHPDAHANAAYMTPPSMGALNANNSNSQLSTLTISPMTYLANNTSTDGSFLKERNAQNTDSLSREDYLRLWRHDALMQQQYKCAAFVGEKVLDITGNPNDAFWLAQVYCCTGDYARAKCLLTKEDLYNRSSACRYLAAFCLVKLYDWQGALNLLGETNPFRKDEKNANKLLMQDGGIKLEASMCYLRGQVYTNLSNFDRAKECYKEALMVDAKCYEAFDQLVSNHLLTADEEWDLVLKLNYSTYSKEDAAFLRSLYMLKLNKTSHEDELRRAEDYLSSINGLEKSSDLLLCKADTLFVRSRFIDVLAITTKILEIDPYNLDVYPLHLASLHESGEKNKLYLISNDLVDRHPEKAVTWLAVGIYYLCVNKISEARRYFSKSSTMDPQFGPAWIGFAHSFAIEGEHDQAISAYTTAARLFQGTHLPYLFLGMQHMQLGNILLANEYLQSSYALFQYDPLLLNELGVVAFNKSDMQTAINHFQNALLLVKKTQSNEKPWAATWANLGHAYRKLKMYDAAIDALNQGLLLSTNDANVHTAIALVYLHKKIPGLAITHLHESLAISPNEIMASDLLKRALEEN
Nature of the experiment: crystal structure; Cdc16–Cdc26 crystals (previously determined by SAD) phased by molecular replacement (Phaser) with the Cdc16–Cdc26-assigned EM density of S. pombe APC/C as search model; diffraction data cut to 4–30 Å; phases extended from 10 to 5 Å; both purified.

B1: Cdc26 (Hcn1) subunit of recombinant S. pombe APC/C (natural protein, UniProt O13916 1-80, looked up)
chain: MLRRNPTAIQITAEDVLAYDEEKLRQTLDSESTTEEALQKNEESTRLSPEKKKIIRERRIGITQIFDSSMHPSQGGAAQS
notes: Cdc26 (S. pombe name Hcn1), TPR accessory subunit of the S. pombe anaphase-promoting complex; Subunit within the recombinant S. pombe APC/C used for cryo-EM; source: recombinant S. pombe APC/C
Turning to B1, the binding result is “binds”.
